Source: PubChem BioAssay AID1347075 (National Center for Advancing Translational Sciences (NCATS), 2019)
Values joined by “and” are separate entries in the source; they are usually repeats but may differ in a detail not shown here. Equal values may be shown once. Out of some 400,000 compounds screened, about 5,500 (1.4%) were called active. Inconclusive results, whose numbers are uncertain, are shown with a selection of clear calls. Calls come from the whole dose curve; as a rule, active = well fitted cell-killing curve with a large enough effect; inconclusive = small, poorly fitted or top-dose-only effect, or effect the other way; inactive = flat fitted curve, though single readings scatter. Where the call is inconclusive, the potency comes from a doubtful curve fit.

Test: qHTS assay for MDR1-selective chemotherapeutics: Primary screen using the parental adenocarcinoma cell KB-3-1; note: nearly all actives have a fitted effect of over 60% in size
Conditions: KB-3-1 viability, CellTiter-Glo ATP luminescence, 72 h; activity change, negative = cytotoxic: at 46.1 µM (top of the series)
Outline: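 Here the drug-naive KB-3-1 line serves as comparator for MDR sub-line selectivity; cells received compound titrations, 72 h at 37 °C, then CellTiter-Glo readout.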
% is set by controls: 0 for no effect and ±100 for the full control effect; potency is the fitted concentration of half-maximal effect.

Which Potency does the source give for `O=C(Nc1nnc(S(=O)(=O)N2CCCc3ccccc32)s1)c1ccc(Cl)cc1` here?
The Potency was inconclusive: 16.4 µM [cytotoxic, single point].

Which Potency does the source give for `Cc1cc(NC(=O)COC(=O)c2c(Cl)cccc2Cl)no1` here?
The Potency was inconclusive: 20.6 µM [cytotoxic, partial curve].

Which Potency does the source give for `Cn1c(CCc2nc3ccccc3[nH]2)nnc1SCC#N` here?
The Potency was inconclusive: 20.6 µM [rising, single point].

Which Potency does the source give for `COc1ccc(CCN2C(=O)c3ccccc3NC2c2cc(Cl)c(O)c(OC)c2)cc1` (centres undefined) here?
Its Potency is inconclusive: 9.2 µM [cytotoxic, partial curve, poor fit].

With `Cc1ccccc1-c1nc(CS(=O)(=O)CC(=O)NCCCN2CCN(C)CC2)c(C)o1` as the molecule, how does the Potency read?
The Potency was inconclusive: 29.1 µM [cytotoxic, single point].

Which “activity change, negative = cytotoxic” value does the source give for `Cc1cccc(/C=C2\Oc3cc(OS(C)(=O)=O)ccc3C2=O)c1` here?
The value was inactive: 0%.

For `CCc1nc2c(cnn2-c2ccc(Cl)cc2)c(=O)n1-c1ccc2c(c1)OCCO2`, which Potency is on record?
Its Potency is inconclusive: 16.4 µM [cytotoxic, single point].

Which Potency does the source give for `C[C@H](NC(=O)c1nc[nH]c1C(=O)NCCCCCNC(=O)OC(C)(C)C)c1ccccc1` here?
Its Potency is inconclusive: 23.1 µM [cytotoxic, single point].

With `Nc1cc(=O)[nH]c(SCc2ccccc2Cl)n1` as the molecule, how does the “activity change, negative = cytotoxic” value read?
The value was inactive: -29.9%.

For `CN1CCN(c2ccc(CNC(=O)C3Cc4c(-c5ccccc5)ccnc4O3)cc2)CC1` (centres undefined), which “activity change, negative = cytotoxic” value is on record?
The value was inactive: 0%.

For `Cc1nc(NC(=O)/C=C/c2ccco2)sc1C`, which Potency is on record?
The Potency was active: 4.11 µM.

Which Potency does the source give for `CCC(C)(C)n1nnnc1C(c1cc2cccc(C)c2[nH]c1=O)N1CCCC1` (centres undefined) here?
The Potency was inconclusive: 18.4 µM [cytotoxic, single point].

Which Potency does the source give for `COC(CSc1ncnc2c1oc1nc3c(cc12)COC(C)(C)C3)OC` here?
The Potency was inconclusive: 20.6 µM [cytotoxic, single point].

For `Cc1[nH]c2c(C(=O)N3CCCC(CCC(=O)NCc4ccccc4F)C3)cccc2c1C` (centres undefined), which Potency is on record?
The Potency was inconclusive: 23.1 µM [cytotoxic, single point].

With `O=C(NC(CSC(=O)c1ccccc1)C(=O)O)OCc1ccccc1` (centres undefined) as the molecule, how does the “activity change, negative = cytotoxic” value read?
The value was inactive: 7.01%.

With `CC(C)c1ccc(NC(=S)NC2CCN(Cc3ccccc3)CC2)cc1` as the molecule, how does the Potency read?
Its Potency is inconclusive: 13 µM [cytotoxic, partial curve, poor fit].

Which “activity change, negative = cytotoxic” value does the source give for `O=C(CCCN1C(=O)c2ccccc2C1=O)N1CCc2ccccc2C1` here?
The value was inactive: 12%.

With `COc1ccc(C2(C)NC(=O)N(CC(=O)c3cc(C)n(C4CC4)c3C)C2=O)cc1OC` (centres undefined) as the molecule, how does the Potency read?
Its Potency is inconclusive: 29.1 µM [cytotoxic, single point].

Which Potency does the source give for `CCN(CC)S(=O)(=O)c1cc(C(=O)OCC(=O)Nc2cccc(S(=O)(=O)N(C)C)c2)ccc1F` here?
The Potency was inconclusive: 20.6 µM [rising, single point].

For `COc1ccc(CNc2nc(-c3ccccc3)nc3ccccc23)cc1OC`, which “activity change, negative = cytotoxic” value is on record?
Its value is inactive: 14.9%.

Which Potency does the source give for `COC(=O)c1[nH]c2cc(C)ccc2c1NC(=O)CN1CCc2cc(OC)c(OC)cc2C1` here?
Its Potency is inconclusive: 29.1 µM [cytotoxic, single point].

With `C=CCn1c(SCc2cc(C(C)=O)ccc2OCC)nc2ccccc2c1=O` as the molecule, how does the Potency read?
Its Potency is active: 1.16 µM.

With `O=S(=O)(Nc1ccc2c(c1)nc1n2CCN(Cc2ccccc2)C1)c1ccc(Cl)cc1` as the molecule, how does the Potency read?
Its Potency is inconclusive: 35.5 µM [cytotoxic, single point].

With `CC1(C)CC(NC(=O)c2coc(=O)c(Br)c2)CC(C)(C)N1` as the molecule, how does the Potency read?
Its Potency is active: 16.4 µM.

For `COc1ccc(-n2cc3c(-c4cccc(Br)c4)nnc(C)c3n2)cc1`, which “activity change, negative = cytotoxic” value is on record?
The value was inactive: 0.627%.

For `CCOc1ccc2nc(N3C(=O)/C(=C/c4ccc(Cl)cc4)NC3=S)sc2c1`, which Potency is on record?
Its Potency is inconclusive: 18.4 µM [cytotoxic, single point].

With `CCN(CC)CCNC(=O)c1cc2c(-c3ccc(Cl)cc3)nn(C)c2s1` as the molecule, how does the Potency read?
Its Potency is inconclusive: 29.1 µM [cytotoxic, single point].

For `Cc1cc2c(nc1C)CCCN2C[C@@H](C)O/N=C1/[C@H]2CCn3c(=O)n(-c4ccccc4)c(=O)n3[C@H]2[C@H](O)[C@@H]2O[C@H]12`, which Potency is on record?
The Potency was inconclusive: 29.1 µM [cytotoxic, single point].

Which “activity change, negative = cytotoxic” value does the source give for `Nc1ncnc2c1ncn2[C@@H]1O[C@H](C(=O)Nc2ccc(C(=O)N3CCCCC3)cc2)[C@@H](O)[C@H]1O` here?
Its value is inactive: 0.0302%.

Which Potency does the source give for `CN(Cc1ccccc1)C(=O)c1[nH]cnc1C(=O)Nc1ccc(Cl)cc1` here?
Its Potency is inconclusive: 18.4 µM [cytotoxic, single point].

For `Cc1nn(-c2ccccc2)c(Cl)c1/C=N/NC(=O)c1nn(C)cc1[N+](=O)[O-]`, which Potency is on record?
The Potency was active: 18.4 µM.

With `O=C1NCCN(CC2CCN(CCc3ccccc3)CC2)C1=O` as the molecule, how does the Potency read?
The Potency was inconclusive: 29.1 µM [cytotoxic, single point].

Which Potency does the source give for `Cc1cc(C)c2c(N)c(C(=O)c3ccc(Cl)cc3Cl)sc2n1` here?
Its Potency is inconclusive: 29.1 µM [cytotoxic, single point].

With `Cc1cccc(NC(=O)c2ccc(S(=O)(=O)N3CCC(C)CC3)cc2)n1` as the molecule, how does the Potency read?
Its Potency is inconclusive: 29.1 µM [cytotoxic, partial curve, poor fit].

Which Potency does the source give for `O=C(Cn1sc2ccccc2c1=O)Nc1ccc(F)cc1` here?
Its Potency is inconclusive: 29.1 µM [cytotoxic, single point].

For `O=C(O)c1ccc(COc2ccc3ccccc3c2/C=C2/NC(=O)N(Cc3ccc(F)cc3)C2=O)cc1`, which “activity change, negative = cytotoxic” value is on record?
The value was inactive: 3.19%.

For `COc1ccc(OC)c(Nc2nc(-c3ccc(O)c(O)c3)cs2)c1`, which Potency is on record?
The Potency was inconclusive: 23.1 µM [cytotoxic, partial curve, poor fit].

With `CC(C)C[C@H](NC(=O)c1nc[nH]c1C(=O)NC1CCN(C(=O)OC(C)(C)C)CC1)C(=O)OCc1ccccc1` as the molecule, how does the Potency read?
The Potency was inconclusive: 32.6 µM [cytotoxic, single point].

With `Cc1ccc(CS(=O)(=O)c2ccccc2-c2nnc(-c3ccc(Cl)cc3)o2)cc1` as the molecule, how does the Potency read?
Its Potency is inconclusive: 23.1 µM [cytotoxic, partial curve].

Which Potency does the source give for `O=C(NCc1ccccc1F)C1CCCN(C(=O)Nc2ccccc2)C1` (centres undefined) here?
The Potency was inconclusive: 29.1 µM [cytotoxic, single point].

For `Cc1c(NC(=O)c2cc(-c3ccc(F)cc3)nc3ccccc23)c(=O)n(-c2ccccc2)n1C`, which Potency is on record?
The Potency was inconclusive: 32.6 µM [rising, single point].

For `CCN(C(=O)CSc1n[nH]c(-c2cc(Cl)ccc2OC)n1)C1CCS(=O)(=O)C1` (centres undefined), which Potency is on record?
Its Potency is inconclusive: 25.9 µM [rising, single point].

With `O=C1NC(NS(=O)(=O)c2ccccc2)(C(F)(F)F)C(=O)N1CCc1ccccc1` (centres undefined) as the molecule, how does the activity change, negative = cytotoxic read?
The activity change, negative = cytotoxic was inconclusive: 8.39%.

With `O=C(C[N+]1(CC#Cc2ccccc2)CCOCC1)c1ccc(Cl)cc1` as the molecule, how does the “activity change, negative = cytotoxic” value read?
Its value is inactive: 2.2%.

For `O=C(N/N=C/c1ccc(Cl)c(Cl)c1)c1ccc2nc[nH]c2c1`, which Potency is on record?
Its Potency is active: 18.4 µM.

With `C=CCSc1nsc(NC(=O)Nc2ccc(F)cc2)n1` as the molecule, how does the Potency read?
The Potency was inconclusive: 29.1 µM [cytotoxic, single point].

With `COC(=O)c1ccc(/C=N/N2CCN(Cc3ccc(C)cc3C)CC2)cc1` as the molecule, how does the “activity change, negative = cytotoxic” value read?
Its value is inactive: -1.3%.

Which Potency does the source give for `CC(C)(C)OC(=O)C[C@H]1C/C=C\C[C@@H](CC(=O)N[C@@H](CO)Cc2ccccc2)C(=O)NC[C@@H](c2ccccc2)OC1=O` here?
Its Potency is inconclusive: 32.6 µM [rising, single point].

For `CCc1ccc(NC(=O)C2CCN(S(=O)(=O)c3ccc4c(c3)CC(C)N4C(C)=O)CC2)cc1` (centres undefined), which Potency is on record?
The Potency was inconclusive: 20.6 µM [cytotoxic, single point].

With `Cc1ccc(S(=O)(=O)c2ncccc2[N+](=O)[O-])cc1` as the molecule, how does the Potency read?
Its Potency is inconclusive: 18.4 µM [cytotoxic, single point].

Which Potency does the source give for `COc1ccc(CCNC(=O)c2ccc3nc(-c4ccco4)c(-c4ccco4)nc3c2)cc1OC` here?
Its Potency is inconclusive: 29.1 µM [cytotoxic, single point].

Which Potency does the source give for `O=S(=O)(/N=C/c1ccccc1O)c1cccs1` here?
Its Potency is inconclusive: 29.1 µM [rising, single point].

Which “activity change, negative = cytotoxic” value does the source give for `O=C(CCCCCNC(=S)Nc1ccc(Cl)cc1)C[N+](=O)[O-]` here?
The value was inactive: 12.5%.

Which Potency does the source give for `CCN1CCN(Cc2ccc(NC(=O)c3cc(NC(=O)c4cc5cccc(OC)c5o4)cc(OC)c3)cc2C(F)(F)F)CC1` here?
The Potency was inconclusive: 8.2 µM [cytotoxic, partial curve, poor fit] and inconclusive: 29.1 µM [cytotoxic, single point].

Which “activity change, negative = cytotoxic” value does the source give for `COc1cc(CNn2c(C)n[nH]c2=S)cc(Cl)c1OCc1ccc(F)cc1` here?
Its value is inactive: -17.5%.

For `OCCOCCn1c(CCNc2nc(-c3ccc(F)cc3)cs2)nc2cc(C(F)(F)F)ccc21`, which “activity change, negative = cytotoxic” value is on record?
The value was inactive: 0%.

With `CC(=O)N1CCCc2cc(S(=O)(=O)N3CCCC(C(=O)Nc4ccc(F)cc4F)C3)ccc21` (centres undefined) as the molecule, how does the Potency read?
Its Potency is inconclusive: 29.1 µM [cytotoxic, single point].

For `COc1ccc(NC(=O)c2ccc(COc3ccccc3Br)o2)c(OC)c1`, which Potency is on record?
Its Potency is inconclusive: 20.6 µM [cytotoxic, single point].

With `COc1cccc(CC(=O)Nc2c(C(=O)N3CCN(c4ccccc4)CC3)oc3ccccc23)c1` as the molecule, how does the Potency read?
The Potency was inconclusive: 16.4 µM [cytotoxic, single point].

With `N#CCOC(=O)c1cc(S(=O)(=O)N2CCCCC2)ccc1N1CCOCC1` as the molecule, how does the activity change, negative = cytotoxic read?
Its activity change, negative = cytotoxic is inconclusive: 30.4%.

With `O=C1c2ccccc2-c2onc3ccc(N4CCCC4)c1c23` as the molecule, how does the Potency read?
The Potency was inconclusive: 23.1 µM [cytotoxic, partial curve, poor fit].

For `CCOC(=O)c1c(NC(=O)C[n+]2ccc(Cc3ccccc3)cc2)sc(C)c1C`, which Potency is on record?
Its Potency is inconclusive: 29.1 µM [cytotoxic, single point].

For `CCC(=O)N1CCc2cc(Br)cc(S(=O)(=O)NC3CCN(Cc4ccccc4)CC3)c21`, which Potency is on record?
The Potency was inconclusive: 23.1 µM [cytotoxic, single point].

Which “activity change, negative = cytotoxic” value does the source give for `COc1ccc(C2C(C(C)=O)=C(Nc3ccccc3)CC(C)(O)C2C(C)=O)cc1OC` (centres undefined) here?
Its value is inactive: 1.03%.
